In the test the target is T1, 3βHSD1 (endogenous, human prostate tissue) (human) (UniProt P14060).
T1 sequence (looked up): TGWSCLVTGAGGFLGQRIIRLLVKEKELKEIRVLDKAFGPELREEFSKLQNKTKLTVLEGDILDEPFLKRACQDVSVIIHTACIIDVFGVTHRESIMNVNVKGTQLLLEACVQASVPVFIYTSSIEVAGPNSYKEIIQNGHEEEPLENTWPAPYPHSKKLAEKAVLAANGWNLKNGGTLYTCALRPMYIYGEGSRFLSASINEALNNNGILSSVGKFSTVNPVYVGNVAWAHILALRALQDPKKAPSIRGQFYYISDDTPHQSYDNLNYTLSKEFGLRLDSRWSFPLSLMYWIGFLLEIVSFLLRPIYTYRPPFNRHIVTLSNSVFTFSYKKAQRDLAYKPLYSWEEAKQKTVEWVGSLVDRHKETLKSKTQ
Nature of the test: immunoprecipitation and western blot from patient prostate tissue. A general note: A western blot detects proteins with antibodies after separation by electrophoresis.

No constants are given. Whether binding was seen depends on the method and setting. Some results given as binding are weak or reduced against the parent protein; the word gives no strength.

B1: BMX (endogenous, human prostate tissue) (enzyme, UniProt P51813 1-675, looked up)
chain: MDTKSILEELLLKRSQQKKKMSPNNYKERLFVLTKTNLSYYEYDKMKRGSRKGSIEIKKIRCVEKVNLEEQTPVERQYPFQIVYKDGLLYVYASNEESRSQWLKALQKEIRGNPHLLVKYHSGFFVDGKFLCCQQSCKAAPGCTLWEAYANLHTAVNEEKHRVPTFPDRVLKIPRAVPVLKMDAPSSSTTLAQYDNESKKNYGSQPPSSSTSLAQYDSNSKKIYGSQPNFNMQYIPREDFPDWWQVRKLKSSSSSEDVASSNQKERNVNHTTSKISWEFPESSSSEEEENLDDYDWFAGNISRSQSEQLLRQKGKEGAFMVRNSSQVGMYTVSLFSKAVNDKKGTVKHYHVHTNAENKLYLAENYCFDSIPKLIHYHQHNSAGMITRLRHPVSTKANKVPDSVSLGNGIWELKREEITLLKELGSGQFGVVQLGKWKGQYDVAVKMIKEGSMSEDEFFQEAQTMMKLSHPKLVKFYGVCSKEYPIYIVTEYISNGCLLNYLRSHGKGLEPSQLLEMCYDVCEGMAFLESHQFIHRDLAARNCLVDRDLCVKVSDFGMTRYVLDDQYVSSVGTKFPVKWSAPEVFHYFKYSSKSDVWAFGILMWEVFSLGKQPYDLYDNSQVVLKVSQGHRLYRPHLASDTIYQIMYSCWHELPEKRPTFQQLLSSIEPLREKDKH
As to B1, the binding entry is reported as “binds”.

(Values after patent US20240197744A1, “TREATING SEX STEROID DEPENDENT CANCER WITH BMX INHIBITORS” (The Cleveland Clinic Foundation, priority 2021, published 2024).)
